In the test the test system is BDF1 mice, P388 leukemia ip, median survival T/C. Kind of test: NCI In Vivo Anticancer Drug Screen. Data for tumor model P388 Leukemia (intraperitoneal) in B6D2F1 (BDF1) mice. The following applies: T/C endpoint: median survival time, higher T/C = longer survival. The procedure, abridged: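 Read-out is survival of treated animals expressed relative to the vehicle group, as a T/C ratio.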

Setting [1] is: dose: 100.0 mg/kg/injection, schedule: Q04DX003 (ip), vehicle: Klucel (hydroxypropylcellulose) (HPC).
Where [2] appears, read: dose: 200.0 mg/kg/injection, schedule: Q04DX003 (ip), vehicle: Klucel (hydroxypropylcellulose) (HPC).
Where [3] appears, read: dose: 400.0 mg/kg/injection, schedule: Q04DX003 (ip), vehicle: Klucel (hydroxypropylcellulose) (HPC).
The mark [4] stands for this setting: dose: 3.12 mg/kg/injection, schedule: Q01DX009 (ip), vehicle: water.
The mark [5] stands for this setting: dose: 25.0 mg/kg/injection, schedule: Q01DX009 (ip), vehicle: water.

The list does not hold the whole screen: it gathers tests that were run many times, whatever their T/C, doses with no T/C, and many T/C values between a quarter and a half above the control. Other doses and runs of a compound stand elsewhere. T/C is the treated group as % of the vehicle group. Some entries give survivors of the animals treated and no T/C: the source files T/C as zero there, which appears to mark a toxic dose or a test without result, not a measured value. Some doses without a T/C left all or most animals alive at the check, yet need not have been tolerated: survival well below the control is almost never listed, so the zero probably covers shortened survival too. Survivors were counted at the toxicity check, usually on the fifth day, unless a day is given; later deaths do not show. Schedule codes are those of the source, read here as Q, the interval in days (D) or hours (H), X, the number of doses. Some entries were tested several times; the results are listed from low to high. For survival time, this PubChem deposit counts one and a half times the control or more as active, and values a quarter to a half above the control carry no call in these data; other NCI protocols may use other cut-offs. Additions like (4×) stand for listed records that agree. Some T/C values carry the count of animals alive at the toxicity check (mostly the fifth day); where none is given, no animal had died by that day.

The values below come from PubChem BioAssay AID328 (DTP/NCI, 2004).

With `Cc1cc(C)c([I+]c2c(C)cc(C)cc2C)c(C)c1`, the T/C is 125 % of control (dose: 0.82 mg/kg/injection, schedule: Q04DX003 (ip), vehicle: saline); 130 % of control (dose: 1.65 mg/kg/injection, schedule: Q04DX003 (ip), vehicle: saline); 125 and 133 % of control (dose: 12.0 mg/kg/injection, schedule: Q04DX003 (ip), vehicle: Klucel (hydroxypropylcellulose) (HPC)); 143 % of control (dose: 12.0 mg/kg/injection, schedule: Q04DX003 (ip), vehicle: saline with Tween-80). Further, the survivor count is, setting by setting: (dose: 2.48 mg/kg/injection, schedule: Q04DX003 (ip), vehicle: saline) 4 of 6; (dose: 3.3 mg/kg/injection, schedule: Q04DX003 (ip), vehicle: saline) 3 of 6; (dose: 12.0 mg/kg/injection, schedule: Q01DX009 (ip), vehicle: Klucel (hydroxypropylcellulose) (HPC)) 3 of 6; (dose: 18.0 mg/kg/injection, schedule: Q04DX003 (ip), vehicle: Klucel (hydroxypropylcellulose) (HPC)) 6 of 6; (dose: 18.0 mg/kg/injection, schedule: Q04DX003 (ip), vehicle: saline with Tween-80) 4 of 6; (dose: 25.0 mg/kg/injection, schedule: Q04DX003 (ip), vehicle: Klucel (hydroxypropylcellulose) (HPC)) 2 of 6. The survivor count was 0 of 6 (dose: 50.0 mg/kg/injection, schedule: Q04DX003 (ip), vehicle: Klucel (hydroxypropylcellulose) (HPC)); 0 of 6 under setting [1]; 0 of 6 under setting [2]; 0 of 6 under setting [3].
Consider `C(#Cc1ccccc1)COCC1CO1` (stereo not drawn), for which the T/C was 125 % of control (dose: 200.0 mg/kg/injection, schedule: Q01DX009 (ip), vehicle: saline with Tween-80) and 133 % of control (dose: 400.0 mg/kg/injection, schedule: Q01DX009 (ip), vehicle: saline with Tween-80).
`CSc1nc2[nH]cnc(=S)c2[nH]1`: the survivor count was 1 of 6 (dose: 100.0 mg/kg/injection, schedule: Q04DX003 (ip), vehicle: saline with Tween-80); 1 of 6 (dose: 200.0 mg/kg/injection, schedule: Q04DX003 (ip), vehicle: saline with Tween-80); 0 of 6 (dose: 400.0 mg/kg/injection, schedule: Q04DX003 (ip), vehicle: saline with Tween-80).
On to `CC(C)(C)COC(=O)CCN1CC1`, for which the survivor count was 4 of 6 (dose: 40.0 mg/kg/injection, schedule: Q01DX009 (ip), vehicle: Klucel (hydroxypropylcellulose) (HPC)) and 3 of 6 (dose: 80.0 mg/kg/injection, schedule: Q01DX009 (ip), vehicle: Klucel (hydroxypropylcellulose) (HPC)).
As to `CCCCC1CCCCCCc2[nH]c(/C=C3\N=C(c4ccc[nH]4)C=C3OC)cc21` (stereo not drawn), the survivor count is 2 of 6 (dose: 12.5 mg/kg/injection, schedule: Q01DX009 (ip), vehicle: saline with Tween-80); 0 of 6 (dose: 25.0 mg/kg/injection, schedule: Q01DX009 (ip), vehicle: saline with Tween-80); 0 of 6 (dose: 50.0 mg/kg/injection, schedule: Q01DX009 (ip), vehicle: saline with Tween-80).
Consider `C1=C(c2ccccc2)OC(c2ccccc2)=C[P+]1(c1ccccc1)c1ccccc1`, for which the survivor count runs as follows: (dose: 50.0 mg/kg/injection, schedule: Q01DX005 (ip), vehicle: saline with Tween-80) 0 of 5; (dose: 100.0 mg/kg/injection, schedule: Q01DX005 (ip), vehicle: saline with Tween-80) 0 of 5; (dose: 200.0 mg/kg/injection, schedule: Q01DX005 (ip), vehicle: saline with Tween-80) 0 of 5.
For the molecule `CCOC(=N)c1cn(C2OC(CO)C(O)C2O)c2ncnc(N)c12` (stereo not drawn), the survivor count (dose: 1.0 mg/kg/injection, schedule: Q01DX009 (ip), vehicle: saline with Tween-80) is 6 of 6; the survivor count (dose: 2.0 mg/kg/injection, schedule: Q01DX009 (ip), vehicle: saline with Tween-80) is 6 of 6; the survivor count (dose: 4.0 mg/kg/injection, schedule: Q01DX009 (ip), vehicle: saline with Tween-80) is reported as 6 of 6. The T/C was 140 % of control (dose: 4.0 mg/kg/injection, schedule: Q04DX003 (ip), vehicle: saline with Tween-80); 132 % of control (dose: 12.0 micrograms/kg/injection, schedule: Q01DX009 (ip), vehicle: saline); 135 % of control (2×) (dose: 18.0 micrograms/kg/injection, schedule: Q01DX009 (ip), vehicle: saline); 129 % of control (dose: 30.0 micrograms/kg/injection, schedule: Q01DX009 (ip), vehicle: saline with Tween-80); 128 % of control (dose: 44.0 micrograms/kg/injection, schedule: Q01DX009 (ip), vehicle: saline); 129 % of control (dose: 60.0 micrograms/kg/injection, schedule: Q01DX009 (ip), vehicle: saline with Tween-80). For the same molecule, the T/C (dose: 150.0 micrograms/kg/injection, schedule: Q01DX009 (ip), vehicle: saline) is 149 % of control.
For the molecule `CN(C)CCSC1=CC(=O)c2ccccc2C1=O`, the survivor count is on record as 3 of 6 under setting [4]; 0 of 6 (dose: 6.25 mg/kg/injection, schedule: Q01DX009 (ip), vehicle: water); 4 of 6 (dose: 6.25 mg/kg/injection, schedule: Q04DX003 (ip), vehicle: water).
Turning to `Nc1cc[c]([Hg][Cl])cc1`, the survivor count (dose: 12.0 mg/kg/injection, schedule: Q01DX001 (ip), vehicle: Klucel (hydroxypropylcellulose) (HPC)) is on record as 0 of 6; the survivor count (dose: 25.0 mg/kg/injection, schedule: Q01DX001 (ip), vehicle: Klucel (hydroxypropylcellulose) (HPC)) was 1 of 6 and 3 of 6; the survivor count (dose: 50.0 mg/kg/injection, schedule: Q01DX001 (ip), vehicle: Klucel (hydroxypropylcellulose) (HPC)) was 0 of 6; the survivor count (dose: 100.0 mg/kg/injection, schedule: Q01DX001 (ip), vehicle: Klucel (hydroxypropylcellulose) (HPC)) is reported as 0 of 6; the survivor count (dose: 200.0 mg/kg/injection, schedule: Q01DX001 (ip), vehicle: Klucel (hydroxypropylcellulose) (HPC)) is on record as 0 of 6; the survivor count (dose: 400.0 mg/kg/injection, schedule: Q01DX001 (ip), vehicle: Klucel (hydroxypropylcellulose) (HPC)) is given as 0 of 6.
In the case of `CCOC(=O)N(C)c1ccccc1`, the survivor count is 6 of 6 under setting [1], 5 of 6 under setting [2] and 6 of 6 under setting [3].
`O=C1c2ccccc2C(=O)N1CC[P+](c1ccccc1)(c1ccccc1)c1ccccc1`: the T/C was 125 % of control (dose: 1.56 mg/kg/injection, schedule: Q01DX009 (ip), vehicle: water); 135 % of control under setting [4]; 127 % of control under setting [5]; 125 % of control (dose: 25.0 mg/kg/injection, schedule: Q04DX003 (ip), vehicle: water, evaluated on day 23); 137 % of control [5 of 6 alive] (dose: 25.0 mg/kg/injection, schedule: Q04DX003 (ip), vehicle: water, evaluated on day 30). Also, the survivor count under setting [5] was 1 of 6; the survivor count (dose: 50.0 mg/kg/injection, schedule: Q01DX009 (ip), vehicle: Klucel (hydroxypropylcellulose) (HPC)) is given as 3 of 6; the survivor count (dose: 50.0 mg/kg/injection, schedule: Q01DX009 (ip), vehicle: water) is 4 of 6 and 6 of 6; the survivor count (dose: 50.0 mg/kg/injection, schedule: Q04DX003 (ip), vehicle: water) is on record as 3 of 6; the survivor count (dose: 100.0 mg/kg/injection, schedule: Q01DX009 (ip), vehicle: water) was 4 of 6; the survivor count (dose: 200.0 mg/kg/injection, schedule: Q01DX009 (ip), vehicle: water) is given as 0 of 6. Besides, the survivor count (dose: 400.0 mg/kg/injection, schedule: Q01DX009 (ip), vehicle: water) is 0 of 6.
Regarding `ClCCCN1CCN(CCCCl)CC1`, where the note is “dose: 50.0 mg/kg/injection, schedule: Q01DX009 (ip), vehicle: distilled water + alcohol”, the T/C was 144 % of control. Moreover, where the note is “dose: 200.0 mg/kg/injection, schedule: Q01DX009 (ip), vehicle: distilled water + alcohol”, the survivor count is given as 0 of 6.
